Test results published in the supplement of paper PMC5949888.
Most values lie at the floor of the assay. Slopes are relative: functional sequences can read slightly below zero.

Each substance was assayed on Saccharomyces cerevisiae PS128 hsf1 delta, HSF1(1-493) fusion (assay: growth estimate (transactivation domain function in HSF1 fusion, heat-shock survival) (a.u. (slope of normalised read count over time)); higher = stronger growth at 37°C, i.e. more transactivation activity). Details: library: random library.

Row | Substance | growth estimate
1 | TRLARIVQFNGIATHDLAWA | < -0.25
2 | DRRLKGVRVSSSGGEPVLKT | < -0.25
3 | VSHCDTLALTHRSWRRICNE | < -0.25
4 | WCRGLTV | < -0.25
5 | SCYGIGGQRPHNRTHRNAKT | < -0.25
6 | ACDKRLSR | < -0.25
7 | LSTSNKDRTHRDLGFIGGGL | < -0.25
8 | SSAGRRFLRWKGRHDRFGVK | < -0.25
9 | KVGSGPFGPSEQIVPPCCLI | < -0.25
10 | RYVLIVVESRYLTRGV | < -0.25
11 | SCIGSES | < -0.25
12 | GHVCVLCMAIMRK | < -0.25
13 | EHICCLLVSHREISECNGSA | < -0.25
14 | TFITFKE | < -0.25
15 | NVIRFGQRLDAYSTTKLMTR | < -0.25
16 | DNSYSDHRTHFTIARGSVHV | < -0.25
17 | SIRCQPPREIRFFDISRFSI | < -0.25
18 | YGSRMVFQVARLGRSHMQLR | < -0.25
19 | HEFPQMHASRPATEASSRGL | < -0.25
20 | GLYVDRLGQRAQPWNPGCVR | < -0.25
21 | TLCRNATTLYSGFRANVVLV | < -0.25
22 | VTESLPPRGGSKGRAGPCFR | < -0.25
23 | RTKTTLHTPGVRLERGPV | < -0.25
24 | GVYCLRR | < -0.25
25 | NKPQVPFHTALNQRTRL | < -0.25

A few values from the entries so far:
NKPQVPFHTALNQRTRL – growth estimate: < -0.25
SIRCQPPREIRFFDISRFSI – growth estimate: < -0.25

Next entries follow.

Row | Substance | growth estimate
26 | HADRTSLGNVESVFQLISSV | < -0.25
27 | VRLGMDRHSAHNGR | < -0.25
28 | ILPSGMLEFEQPLTSITDSC | < -0.25
29 | TVYWEAVLLDCIPWWRPTFC | < -0.25
30 | GRLSRGCAQHSQGKWISL | < -0.25
31 | LARICGSTNSWGVESMTGIH | < -0.25
32 | AAVHAERVDIAGES | < -0.25
33 | VSEHWAGIFSMAGKLVSPSR | < -0.25
34 | CDSLGNS | < -0.25
35 | AKLWIVPALRLRGSAGDTPR | < -0.25
36 | IATHSASNHV | < -0.25
37 | IPHLFRACCDRRCCP | < -0.25
38 | VPRGASGRLDVERTRQAPR | < -0.25
39 | NKTGFSTFISHIG | < -0.25
40 | VNNFQ | < -0.25
41 | ARVNS | < -0.25
42 | IRGRCTRWRIMV | -0.246
43 | MSDIGVGFRYMVRFKVIGDR | < -0.25
44 | LKS | < -0.25
45 | CLG | < -0.25
46 | ATTVRLSAWGVNTLAMEPWT | < -0.25
47 | RCVSPGLHLA | < -0.25
48 | VGWRFVKAFYRDMWDGRIWS | < -0.25
49 | GFQHSLRVRRVEGLRGFKRL | < -0.25
50 | RKSDSGKPVELACWSTGSGV | < -0.25

Row | Substance | growth estimate
51 | SAFKP | < -0.25
52 | ASNGV | < -0.25
53 | VHI | < -0.25
54 | APSPLLGGYVQYGSGA | < -0.25
55 | FVSRFMLCAVRVFVVVQTG | < -0.25
56 | SDLRKSADMVHHLKGPYRPT | -0.246
57 | GGVISIVAYVRFSLAGRPPE | < -0.25
58 | IGDYESIVSCTRFKGCNKGI | < -0.25
59 | RTRGLDPSGKRILCIPGPIP | < -0.25
60 | LTLYGPANLRCCLTPGDGAR | < -0.25
61 | EYKYY | < -0.25
62 | GGQKVAHEKTL | < -0.25
63 | FPQGSHPLAVYYWFRPARAV | < -0.25
64 | CNSKYRDQYILGGFAVLTYG | < -0.25
65 | GSDLGPD | < -0.25
66 | KASISRMACGASLGISEECG | < -0.25
67 | MTKWTLAAVPRLARDPIRWS | < -0.25
68 | PRGFDGKIR | < -0.25
69 | SVNSAGLGGFGRKGASQVAM | -0.243
70 | QIVRYAANEGELEQSAGFGA | -0.246
71 | KSSTPPLSRFYNSPSDAAFL | < -0.25
72 | AEPTCGK | -0.243
73 | HYLVGISLSCTARGTHTFCA | < -0.25
74 | SFVWGCSRSN | < -0.25
75 | DGFE | < -0.25

Already shown: an excerpt of the list.
Row | Substance | growth estimate
53 | VHI | < -0.25
54 | APSPLLGGYVQYGSGA | < -0.25
55 | FVSRFMLCAVRVFVVVQTG | < -0.25
56 | SDLRKSADMVHHLKGPYRPT | -0.246
57 | GGVISIVAYVRFSLAGRPPE | < -0.25

(continued)

Row | Substance | growth estimate
76 | RRLPGEIDTGGHNPLFLTAV | -0.237
77 | TLTGAIPRS | < -0.25
78 | QRTTVGTKVRRTVRARRGLG | < -0.25
79 | YMNKVR | < -0.25
80 | EGPELARLTVDERDGRFRQP | < -0.25
81 | RSECVLTIGKRREFPSLHCE | < -0.25
82 | FEIERSARVIPVVWADATHN | < -0.25
83 | LQCGNSEFFSSLM | < -0.25
84 | LEKCETIRGALINPR | < -0.25
85 | RFILE | < -0.25
86 | CSNQFDYRGRLCSTLSMVSC | < -0.25
87 | GTLACYLGVEKAKGTDVNRK | < -0.25
88 | RTLDEGTLRRRPFLS | < -0.25
89 | TAVYLLPSVEMAVPASLLRV | < -0.25
90 | SSLAVPLENAPRCVLVYIK | < -0.25
91 | PTHIEAVATLPSPCSPCGQR | < -0.25
92 | RRFRKIYRHF | < -0.25
93 | RTTRIFRSIATAMSRDTGEC | < -0.25
94 | VRGSITGTKGSPIILLFDIG | < -0.25
95 | GHHLYQGCDRSTVQISILDK | < -0.25
96 | KTVLFIRKLVPSTIFINEET | < -0.25
97 | DPIR | < -0.25
